Assay [1] deals with Flag-tagged FGL1 (fibrinogen-like protein 1), WT (human) (UniProt Q08830). Nature of the assay: co-IP; Flag-IP: lysates (NP-40 lysis buffer, 150 mM NaCl, 50 mM Tris-HCl pH 7.5) of transfected HEK293T cells incubated with anti-Flag beads overnight at 4°C, washed 5 times with NP-40 buffer, immunoblot. For orientation: A western blot detects proteins with antibodies after separation by electrophoresis.

Amino acid sequences for entries named in this document (tags omitted). Residues count along the entry.
UniProt Q08830, residues 23-312: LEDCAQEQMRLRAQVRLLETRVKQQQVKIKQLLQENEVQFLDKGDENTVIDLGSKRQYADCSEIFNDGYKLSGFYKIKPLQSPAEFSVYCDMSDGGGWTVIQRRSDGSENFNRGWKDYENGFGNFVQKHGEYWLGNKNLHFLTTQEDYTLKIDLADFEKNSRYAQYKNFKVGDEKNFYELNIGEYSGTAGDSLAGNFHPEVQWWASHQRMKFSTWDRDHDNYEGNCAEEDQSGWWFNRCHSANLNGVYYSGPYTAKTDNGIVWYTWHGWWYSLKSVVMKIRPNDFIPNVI
UniProt Q9NRC8: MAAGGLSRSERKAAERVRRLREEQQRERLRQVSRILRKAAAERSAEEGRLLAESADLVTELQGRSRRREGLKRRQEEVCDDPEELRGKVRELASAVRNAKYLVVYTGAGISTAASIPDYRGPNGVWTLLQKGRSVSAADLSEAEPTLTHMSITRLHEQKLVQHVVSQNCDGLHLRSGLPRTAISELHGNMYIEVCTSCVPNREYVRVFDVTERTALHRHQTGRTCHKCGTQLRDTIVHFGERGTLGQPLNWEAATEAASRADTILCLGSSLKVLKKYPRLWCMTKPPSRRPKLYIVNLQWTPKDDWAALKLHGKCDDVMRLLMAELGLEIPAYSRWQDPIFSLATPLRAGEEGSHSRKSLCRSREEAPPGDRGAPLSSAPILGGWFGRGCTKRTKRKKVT

Assay [2] shares this target. Described as above. The source holds these as a separate data set.
The target of assay [3] is endogenous FGL1 (fibrinogen-like protein 1) (human (endogenous in HCCLM3)) (UniProt Q08830). Nature of the assay: co-IP; endogenous IP from HCCLM3 cells: NP-40 lysis buffer with protease inhibitors, 5 μM TSA and 10 mM NAM; anti-FGL1 antibody overnight, Protein G Sepharose 6 hours at 4°C; IgG as negative control; immunoblot.

Like-named read-outs stand apart in the source and are kept apart here. No constants are given. Whether binding was seen depends on the method and setting. Binding seen in cells or lysates may run through a third protein. Some binding calls cover weakened binding; strength is not graded here. For some of these results: Tags and fused reporters may be left off the sequences shown.

For the molecule “Flag-tagged FGL1 (fibrinogen-like protein 1), WT (from UniProt Q08830 23-312)”, the binding entry in assay [1] was “binds”.
“SIRT7-HA (Sirtuin 7) (from UniProt Q9NRC8 1-400) (enzyme)”: in assay [1], the binding entry is on record as “no binding”.

B1: SIRT2-HA (Sirtuin 2) (enzyme, UniProt Q8IXJ6 1-389)
chain: MAEPDPSHPLETQAGKVQEAQDSDSDSEGGAAGGEADMDFLRNLFSQTLSLGSQKERLLDELTLEGVARYMQSERCRRVICLVGAGISTSAGIPDFRSPSTGLYDNLEKYHLPYPEAIFEISYFKKHPEPFFALAKELYPGQFKPTICHYFMRLLKDKGLLLRCYTQNIDTLERIAGLEQEDLVEAHGTFYTSHCVSASCRHEYPLSWMKEKIFSEVTPKCEDCQSLVKPDIVFFGESLPARFFSCMQSDFLKVDLLLVMGTSLQVQPFASLISKAPLSTPRLLINKEKAGQSDPFLGMIMGLGGGMDFDSKKAYRDVAWLGECDQGCLALAELLGWKKELEDLVRREHASIDAQSGAGVPNPSTSASPKKSPPPAKDEARTTEREKPQ
With B1, the binding entry in assay [2] is reported as “binds”.

B2: endogenous SIRT2 (Sirtuin 2) (enzyme, UniProt Q8IXJ6 1-389)
chain: B1 chain
As for B2, the binding result in assay [3] is on record as “binds”.

For the origin of these results see publication PMC10145938.
